The whole screen tested about 310,000 compounds, of which about 17,000 (5.5%) were called active. This list was built around the results that the source calls inconclusive (neither active nor inactive); the mix of calls is not that of the screen. Calls come from the whole dose curve; as a rule, active = well fitted inhibition curve with a large enough effect; inconclusive = small, poorly fitted or top-dose-only effect, or effect the other way; inactive = no such curve, though single readings can be large or run the other way. Potencies of inconclusive entries are doubtful fits and often do not repeat.
molecular target: Nuclear receptor ROR-gamma (Mus musculus) (UniProt P51450); experiment: qHTS for inhibitors of ROR gamma transcriptional activity; conditions: Drosophila S2 Gal4-RORgamma UAS-luciferase reporter, 20 h; series mostly up to 53.6 µM; note: nearly all actives have a fitted effect of over 60% in size
In short: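 ROR gamma transcriptional activity was tracked as Gal4-UAS luciferase output in stably transfected Drosophila Schneider cells, with compound added 1 hr before 700 uM copper sulfate induction and a 20 hr ambient-temperature incubation.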
Potency is the fitted concentration of half-maximal effect.

Amino acid sequences for entries named in this document (tags omitted). A change or cut given only in a name is not applied to a line headed by its entry.
UniProt P51450: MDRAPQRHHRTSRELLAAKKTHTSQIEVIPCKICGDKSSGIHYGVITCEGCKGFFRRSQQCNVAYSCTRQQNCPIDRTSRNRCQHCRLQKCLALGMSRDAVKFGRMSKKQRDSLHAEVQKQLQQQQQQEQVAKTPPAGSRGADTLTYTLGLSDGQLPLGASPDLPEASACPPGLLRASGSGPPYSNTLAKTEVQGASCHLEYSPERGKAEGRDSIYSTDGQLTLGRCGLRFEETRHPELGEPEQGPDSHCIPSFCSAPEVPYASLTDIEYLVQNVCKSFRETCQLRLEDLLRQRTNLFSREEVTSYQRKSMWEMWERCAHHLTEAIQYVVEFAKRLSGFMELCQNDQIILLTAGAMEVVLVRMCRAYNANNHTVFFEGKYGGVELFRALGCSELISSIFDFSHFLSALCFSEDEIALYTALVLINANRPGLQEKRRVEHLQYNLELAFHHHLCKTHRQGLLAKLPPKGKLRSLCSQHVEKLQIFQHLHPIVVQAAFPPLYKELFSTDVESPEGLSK

Potency, inactive:
CCn1c(=O)n(CC)c2cc(N3CCCC3)c(NC(=O)c3ccc(F)cc3)cc21
Cc1cccc(CN2C(=O)c3ccccc3Sc3ccc(C(=O)NCCN4CCOCC4)cc32)c1
CN(C)c1ccc(/C=[N+](\[O-])C2N(c3ccccc3)C(=S)SC2(C)C)cc1 (stereo not given)
CCCCNCc1ccc(OCc2ccc(Cl)nc2)c(OC)c1
COc1ccc(C(=O)C(c2ccccc2)N2CCOCC2)cc1 (stereo not given)
O=S(=O)(c1ccccc1)c1nc(-c2ccccc2)oc1N1CCOCC1
Cc1ccc(C2CC(=O)N3CN(c4ccc(Br)cc4)CSC3=C2C#N)o1 (stereo not given)
CCCCC/C=C\C\C=C/C=C/C=C/[C@@H](SCC(NC(=O)CCC(N)C(=O)O)C(=O)NCC(=O)O)[C@@H](O)CCCC(=O)O (stereo not given in full)
COCCn1c(N)c(Sc2ccc(C)cc2)c(=O)[nH]c1=O
Cc1ccc(C)n1-c1sc2c(c1C(=O)O)CCCC2
Fc1ccc(-c2cnc(-c3cccs3)o2)cc1
COc1ccc2nc3oc(C(=O)N4CC(C)CC(C)C4)cc3cc2c1 (stereo not given)
CCOc1ccc(NS(=O)(=O)c2ccc3[nH]cc(C(=O)N(CC)CC)c(=O)c3c2)cc1
COc1ccc(-n2nc(C(=O)NCC(=O)NCCN(C)C)c3ccccc3c2=O)cc1
Cc1ccc(-n2nc3c(N4CCC(C(=O)NCc5ccc(C)o5)CC4)nnc(C)c3c2C)cc1
CCN(CC)CCN1C(=O)C(=O)/C(=C(/O)c2ccc3c(c2)CC(C)O3)C1c1ccc(OC)cc1 (stereo not given)
N=c1n(CCCOc2ccccc2Cl)c2ccccc2n1CC(N)=O
COc1ccc(NC(=O)COC(=O)CNS(=O)(=O)c2ccc(C)cc2)c(OC)c1
Nc1nc(NCc2c(F)cccc2Cl)nn1-c1ccccc1
C=CCOc1ccc(C2/C(=C(/O)c3ccc4c(c3)CC(C)O4)C(=O)C(=O)N2CCCN2CCOCC2)cc1 (stereo not given)
CC(NC(=O)CSc1nnc(-c2cccc(S(=O)(=O)N3CCCCC3)c2)o1)C12CC3CC(CC(C3)C1)C2 (stereo not given)
Cc1ccc(C)c(N2C(=O)CC(Cc3ccc(Cl)cc3)C2=O)c1 (stereo not given)
C/C(=N\NC(=O)Nc1ccccc1)c1ccc2ccccc2c1
O=C(CCS(=O)(=O)c1ccc(Cl)cc1)Nc1nc(-c2ccncc2)cs1

Nothing new here: 2 of the compounds above.
Potency, inactive:
CCN(CC)CCN1C(=O)C(=O)/C(=C(/O)c2ccc3c(c2)CC(C)O3)C1c1ccc(OC)cc1 (stereo not given)
N=c1n(CCCOc2ccccc2Cl)c2ccccc2n1CC(N)=O

Next part.

Potency, active:
C=CCOc1ccccc1CNc1ccc2c(c1)OCCO2 4.47 µM
CC(C)CC(=O)NC(=S)NNC(=O)c1ccc([N+](=O)[O-])cc1 3.98 µM
c1ccc(-c2nc(-c3cccs3)[nH]c2-c2ccccc2)cc1 10 µM
Cc1oc(-c2ccc3c(c2)OCCO3)cc1C(=O)O 0.891 µM
COc1cccc(/C=N\NC(=O)C2C(=O)NCC2c2ccccc2)c1O (stereo not given) 8.91 µM
CCOC(=O)C1=C(C)NC(=S)N(C(C)=O)C1c1ccc(Cl)cc1 (stereo not given) 7.94 µM
C=CCn1c(=S)[nH]c2sc3c(c2c1=O)CCCC3 0.398 µM
COc1ccccc1C/C(N)=N/OC(=O)c1ccc2c(c1)OCO2 0.891 µM
CC(C)(C)CC(=O)NC(=S)NCc1ccccc1 1.12 µM
O=C(/C=C/c1ccc(NC(=O)c2ccccc2-c2ccccc2C(=O)O)cc1)c1ccccc1 11.2 µM
C/C(=N\NC(=O)c1nc2ccccn2c1C)c1cc2ccccc2o1 12.6 µM
C=CCn1c(CC(C)(C)C)nc2ccccc21 11.2 µM
O=C1N/C(=C\c2ccc(O)cc2)C(O)=C1C=NCc1ccccc1 3.98 µM
COc1ccc(/C=C/c2ccc3c(Br)ccc(O)c3n2)cc1 3.16 µM

Reprinted at random: 5 entries already listed
Potency, active:
COc1ccccc1C/C(N)=N/OC(=O)c1ccc2c(c1)OCO2 0.891 µM
c1ccc(-c2nc(-c3cccs3)[nH]c2-c2ccccc2)cc1 10 µM
O=C(/C=C/c1ccc(NC(=O)c2ccccc2-c2ccccc2C(=O)O)cc1)c1ccccc1 11.2 µM
COc1ccc(/C=C/c2ccc3c(Br)ccc(O)c3n2)cc1 3.16 µM
C=CCn1c(CC(C)(C)C)nc2ccccc21 11.2 µM

Following part:

Potency, inconclusive:
CCn1c(SCc2ccc(Cl)cc2)nnc1-c1ccccc1 12.6 µM [activator, single point]
COc1ccc(CNC(=O)CN(C(=O)c2ccc(CN3CCOCC3)o2)C2CCCC2)cc1 0.0056 µM [activator, full curve, poor fit]
CC(C)(C)c1nc(S(=O)(=O)c2ccc(Cl)cc2)c(N2CCOCC2)o1 15.8 µM [inhibitor, partial curve]
CCc1cc(-c2n[nH]c(C)c2-c2ccccc2Cl)c(O)cc1OC 8.91 µM [inhibitor, partial curve]
C[C@@H]1CC=C[C@H]2[C@H]1C(=O)N(Cc1ccccc1)[C@H]2c1ccc(C(F)(F)F)cc1 15.8 µM [activator, single point]
COc1ccc(CCNC(=S)c2ccccc2)cc1OC 10 µM [activator, partial curve]
COc1cc(NC(=O)c2cccs2)ccc1NC(=O)c1ccccc1Cl 10 µM [activator, partial curve]
c1ccc(-n2ncc3c(NCc4cccs4)ncnc32)cc1 28.2 µM [inhibitor, single point]
Brc1ccccc1C1CC(c2ccccc2)=Nc2ccccc2N1 (stereo not given) 35.5 µM [inhibitor, single point]
O=C(N/N=C\c1ccc(-c2ccccc2[N+](=O)[O-])o1)C1COc2cc3ccccc3cc2O1 (stereo not given) 31.6 µM [inhibitor, single point]
CC(=O)N1CCc2cc(S(=O)(=O)NCc3ccc(C)cc3)ccc21 14.1 µM [activator, single point]
O=C(Nc1ccc(F)cc1)C1CCN(S(=O)(=O)c2cccs2)CC1 14.1 µM [activator, partial curve, poor fit]
CC(C)Cn1c(N)c(C(=O)COC(=O)CN2C(=O)C3CC=CCC3C2=O)c(=O)n(C)c1=O (stereo not given) 10 µM [activator, partial curve]
N#Cc1nc(N)nc(N(c2ccccc2)c2ccccc2)n1 10 µM [inhibitor, partial curve]
COc1cnn(-c2ccccc2)c(=O)c1SCc1ccc(Cl)cc1Cl 15.8 µM [inhibitor, single point]
Cn1c(CS(=O)Cc2c(Cl)cccc2Cl)nnc1SCc1ccc(Cl)cc1 (stereo not given) 1 µM [activator, partial curve, poor fit]
CCc1ccc(OCCCOc2ccc(C=O)cc2)cc1 4.47 µM [inhibitor, full curve]
CC(=O)Nc1ccc(S(=O)(=O)N2CCN=C2SCc2ccccc2C)cc1 10 µM [activator, single point]
Brc1ccc(C2CC(c3ccccc3)=Nc3ccccc3N2)cc1 (stereo not given) 35.5 µM [inhibitor, single point]
COc1ccccc1C(CCN(Cc1ccccc1)C(C)=O)c1ccco1 (stereo not given) 14.1 µM [activator, single point]
O=C(COc1ccccc1Cl)NCc1ccco1 15.8 µM [activator, single point]
CC(C)(C)C1CCc2onc(C(=O)NCc3ccc(F)cc3)c2C1 (stereo not given) 12.6 µM [activator, single point]
Cc1ccc(S(=O)(=O)N2C(=O)CCC2C(=O)Nn2cnnc2)cc1 (stereo not given) 35.5 µM [inhibitor, single point]
COc1ccc(NC(=S)N2CCN(c3ccc([N+](=O)[O-])cc3)CC2)cc1OC 35.5 µM [inhibitor, single point]
c1coc(-c2nc3nc4ccccc4nc3n2CC2CCCO2)c1 (stereo not given) 35.5 µM [inhibitor, single point]
CNC(=O)c1cc(S(=O)(=O)Nc2ccc3c(c2)OCCO3)ccc1C 7.08 µM [activator, partial curve]
COc1ccc(/C=N/NC(=O)c2cc(-c3ccc(C)cc3C)nc3ccccc23)cc1COC(C)=O 2.51 µM [inhibitor, full curve, poor fit]
CN(C(=O)/C=C/c1cnc2ccccc2c1)C1CCCCC1 35.5 µM [inhibitor, single point]
O=C(NCCCNc1ccc(C(F)(F)F)cc1[N+](=O)[O-])c1cc(F)c(F)cc1Cl 25.1 µM [activator, single point]
Cc1ccccc1NC(=O)c1cn(-c2ccccc2)nc1-c1ccccc1 8.91 µM [activator, partial curve, poor fit]
CCC(C)NC(=O)[C@H]1N2C(=O)c3c(ccc(OC)c3OC)C2SC1(C)C (stereo not given in full) 35.5 µM [activator, single point]
Cc1[nH]n(-c2ccccc2)c(=O)c1C(c1ccccc1[N+](=O)[O-])C(C#N)C#N (stereo not given) 35.5 µM [activator, single point]
O=C(/C=C/c1ncc(C(F)(F)F)cc1Cl)OCc1ccccc1 35.5 µM [activator, single point]
CCOC(=O)c1sc(NC(=O)CCCCl)nc1C 7.08 µM [activator, full curve, poor fit]
COc1ccc(C(=O)NNC(=S)NC(=O)c2ccccc2[N+](=O)[O-])cc1 5.01 µM [inhibitor, partial curve, poor fit]
O=[N+]([O-])c1cccc(-c2csc(Nc3ccccc3)n2)c1 11.2 µM [activator, partial curve, poor fit]
COC(=O)c1ccc(CN2CCC(Oc3cccc(C(=O)N4CCOCC4)c3)CC2)cc1 11.2 µM [activator, partial curve]
